The record followed here is patent US20080070791A1 (ZEPHYR PROTEOMIX, published 2008).

By UniProt entry, the sequences of proteins in these tests, tags left out. Where a name states a change or a piece, a line headed by the entry shows the natural chain unless it says otherwise.
UniProt P13612: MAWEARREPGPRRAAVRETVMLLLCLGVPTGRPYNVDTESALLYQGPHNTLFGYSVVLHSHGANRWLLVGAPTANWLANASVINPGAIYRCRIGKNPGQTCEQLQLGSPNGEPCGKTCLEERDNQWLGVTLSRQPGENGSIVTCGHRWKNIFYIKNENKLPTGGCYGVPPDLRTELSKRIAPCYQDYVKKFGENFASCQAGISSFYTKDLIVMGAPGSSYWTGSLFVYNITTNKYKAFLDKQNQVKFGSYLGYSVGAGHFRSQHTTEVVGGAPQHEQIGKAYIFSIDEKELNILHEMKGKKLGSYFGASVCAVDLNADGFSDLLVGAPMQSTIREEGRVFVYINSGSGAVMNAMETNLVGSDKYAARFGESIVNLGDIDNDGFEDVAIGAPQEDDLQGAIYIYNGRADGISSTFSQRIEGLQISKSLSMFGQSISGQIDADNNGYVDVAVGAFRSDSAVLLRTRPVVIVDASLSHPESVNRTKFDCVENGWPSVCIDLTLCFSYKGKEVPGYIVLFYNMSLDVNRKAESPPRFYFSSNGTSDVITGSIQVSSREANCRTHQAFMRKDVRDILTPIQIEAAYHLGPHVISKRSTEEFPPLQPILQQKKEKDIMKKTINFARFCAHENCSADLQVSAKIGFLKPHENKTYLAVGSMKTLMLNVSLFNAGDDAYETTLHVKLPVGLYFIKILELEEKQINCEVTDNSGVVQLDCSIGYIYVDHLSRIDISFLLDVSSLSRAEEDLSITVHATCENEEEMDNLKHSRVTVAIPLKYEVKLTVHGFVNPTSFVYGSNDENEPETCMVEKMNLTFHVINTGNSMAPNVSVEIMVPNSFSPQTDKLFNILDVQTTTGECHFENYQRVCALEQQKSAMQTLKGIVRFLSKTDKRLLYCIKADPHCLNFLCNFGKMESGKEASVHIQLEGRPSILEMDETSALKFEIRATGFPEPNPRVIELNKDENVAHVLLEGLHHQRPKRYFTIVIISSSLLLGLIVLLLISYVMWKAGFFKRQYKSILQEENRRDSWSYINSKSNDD
UniProt Q06851: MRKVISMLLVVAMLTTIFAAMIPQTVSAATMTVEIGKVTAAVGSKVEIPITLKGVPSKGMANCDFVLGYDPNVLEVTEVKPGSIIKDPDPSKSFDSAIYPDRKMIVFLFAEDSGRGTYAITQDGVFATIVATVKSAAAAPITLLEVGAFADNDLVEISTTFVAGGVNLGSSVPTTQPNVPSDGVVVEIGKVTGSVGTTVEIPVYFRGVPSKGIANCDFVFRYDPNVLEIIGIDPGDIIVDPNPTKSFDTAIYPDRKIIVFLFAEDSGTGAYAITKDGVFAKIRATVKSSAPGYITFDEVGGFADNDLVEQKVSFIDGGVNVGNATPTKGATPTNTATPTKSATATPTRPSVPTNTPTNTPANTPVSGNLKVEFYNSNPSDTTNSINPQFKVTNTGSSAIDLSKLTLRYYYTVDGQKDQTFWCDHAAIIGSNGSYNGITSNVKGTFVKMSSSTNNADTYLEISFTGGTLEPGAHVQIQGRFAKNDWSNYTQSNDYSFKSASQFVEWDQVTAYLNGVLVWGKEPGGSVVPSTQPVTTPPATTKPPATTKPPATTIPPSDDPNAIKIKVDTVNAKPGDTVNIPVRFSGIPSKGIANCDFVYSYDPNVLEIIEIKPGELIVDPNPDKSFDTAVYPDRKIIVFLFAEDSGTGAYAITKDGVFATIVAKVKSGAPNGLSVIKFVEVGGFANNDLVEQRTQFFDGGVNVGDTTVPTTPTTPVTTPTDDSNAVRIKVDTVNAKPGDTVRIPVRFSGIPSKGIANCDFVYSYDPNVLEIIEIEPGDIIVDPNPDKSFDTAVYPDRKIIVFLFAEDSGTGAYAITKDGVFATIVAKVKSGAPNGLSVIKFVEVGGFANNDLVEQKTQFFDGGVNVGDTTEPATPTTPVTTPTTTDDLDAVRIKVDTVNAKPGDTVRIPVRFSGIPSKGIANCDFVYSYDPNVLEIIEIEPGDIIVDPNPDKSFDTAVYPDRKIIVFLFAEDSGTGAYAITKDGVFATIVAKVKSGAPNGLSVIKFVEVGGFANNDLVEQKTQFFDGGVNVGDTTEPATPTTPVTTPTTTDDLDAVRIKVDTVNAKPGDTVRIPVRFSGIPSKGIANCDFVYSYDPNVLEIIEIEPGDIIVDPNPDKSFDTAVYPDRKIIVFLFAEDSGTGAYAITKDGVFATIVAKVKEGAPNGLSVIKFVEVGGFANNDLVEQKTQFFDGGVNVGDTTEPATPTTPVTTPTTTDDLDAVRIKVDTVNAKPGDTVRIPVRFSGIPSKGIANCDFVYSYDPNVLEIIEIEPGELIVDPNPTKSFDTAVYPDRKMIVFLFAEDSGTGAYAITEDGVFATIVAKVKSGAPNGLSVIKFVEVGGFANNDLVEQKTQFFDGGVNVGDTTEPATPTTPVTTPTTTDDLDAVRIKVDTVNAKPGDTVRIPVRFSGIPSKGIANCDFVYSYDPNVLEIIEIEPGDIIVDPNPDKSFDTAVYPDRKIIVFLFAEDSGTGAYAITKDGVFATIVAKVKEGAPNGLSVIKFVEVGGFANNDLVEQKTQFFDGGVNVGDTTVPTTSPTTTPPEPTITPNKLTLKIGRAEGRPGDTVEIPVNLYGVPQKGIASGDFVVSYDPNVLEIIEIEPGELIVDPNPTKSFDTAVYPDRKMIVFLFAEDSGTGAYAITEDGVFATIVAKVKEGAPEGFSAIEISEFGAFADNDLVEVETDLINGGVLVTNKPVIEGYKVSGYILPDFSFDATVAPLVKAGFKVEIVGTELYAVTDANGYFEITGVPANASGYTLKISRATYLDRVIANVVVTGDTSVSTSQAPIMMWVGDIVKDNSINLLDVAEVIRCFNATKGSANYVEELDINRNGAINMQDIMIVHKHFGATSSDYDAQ

These are yes or no findings as the source states them, for the method shown. Some results given as binding are weak or reduced against the parent protein; the word gives no strength.

For this assay, the target named is T1, α4β1 integrin expressed on Jurkat cells (human, UniProt P13612 34-1032; P05556 21-798).
T1 construct: whole, on cells; Fluorescence-labeled Jurkat cells applied to the microarray; also called receptor recognizing the CS1 peptide
Nature of the assay: cell adhesion of labeled Jurkat cells on microarray.

As to “ZEPHYRIN-CS1 (from UniProt Q06851 361-527)”, the binding entry was “binds”.
